Among the data in PubChem BioAssay AID2685 (National Center for Advancing Translational Sciences (NCATS), 2010) are cell number change and AC50 values, retold here.

The experiment is described as follows: qHTS Assay for Lipid Storage Modulators in Drosophila S3 Cells.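 As to cell number change: cells counted by Cell Tracker Red CMTPX staining in the red channel.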 The note with it: BODIPY lipid droplet fluorescence, 18-24 h; for cell number change: measured here: cell count max response, cells fed with added oleic acid. The method, boiled down: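 Drosophila S3 cells loaded with oleic acid (400 uM, as added) and compounds at several concentrations; lipid droplets imaged by 488-nm laser-scanning cytometry, 500–530 nm intensity and object ratio to cell channel. Percent activity normalized to 20 uM Triacsin C.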
A general note: qHTS replaces the single test concentration by a dilution series.

Setting [1] is: measured here: lipid fluorescence (Fed channel) AC50, cells fed with added oleic acid.
Setting [2] is: measured here: cell number channel AC50, cells fed with added oleic acid.

The structures appear in SMILES notation. The list shows a part of the results. These are further read-outs of the screen, such as a control signal, another cell line or another target. No call is given for them. Most of these compounds were active or inconclusive in the main read-out, so they are no random draw. Words in brackets tell the shape of the fitted curve; partial curves, single points and poor fits give uncertain potencies.

Consider `Cc1ccc(-n2c3c(c(O)c(-c4ccccc4)c2=O)C(=O)CC(C)(C)C3)cc1`, for which the cell number change is -18.3%. Moreover, under setting [1], the AC50 (commonly the concentration giving half of the maximal activity seen) is 2.31 µM [rising, partial curve].
On to `COc1ccc(/C(C)=N/NC(=O)c2ccc(CSc3nncn3C)cc2)cc1`, for which the cell number change amounted to 59.7%.
Consider `Cc1ccc(NS(=O)(=O)c2cc(C(=O)N3CCCC3)ccc2C)cc1C`, for which the cell number change was -51.6%. The half-maximal activity concentration (AC50) under setting [2] is 20.6 µM [falling, partial curve, poor fit].
As for `CSc1nc(N2CCN(c3ccccc3Cl)CC2)c2ccccc2n1`, the cell number change was determined as 11.4%. For the same molecule, the AC50 under setting [1] was 23.1 µM [rising, partial curve, poor fit].
With `CCCCOc1ccccc1NC(=O)Cn1c(-c2nonc2N)nc2ccccc21`, the AC50 reads like this: under setting [2], 0.411 µM [rising, partial curve]; under setting [1], 0.326 µM [rising, full curve].
Consider `CC(=O)Nc1nc2ccc(NC(=O)c3ccco3)cc2s1`, for which the cell number change came out at 90.2%. Moreover, the AC50 under setting [2] was 4.61 µM [rising, partial curve]. Also, the AC50 under setting [1] is 6.51 µM [rising, single point].
`COc1ccc([C@@H]2C[C@H](c3ccccc3)Oc3cc(C)cc(C)c32)cc1`: the cell number change is 0.849%. The AC50 under setting [1] was 16.4 µM [rising, single point].
With `CCOc1ccc(N2C(=O)CC(N3CCN(c4ccc([N+](=O)[O-])cc4)CC3)C2=O)cc1` (stereo not drawn), the cell number change is -12.2%. The AC50 under setting [1] was 14.6 µM [falling, partial curve, poor fit].
Regarding `Clc1cccc(NCc2nnc(SCc3ccc(Cl)cc3Cl)o2)c1`, the cell number change is -36.6%. For the same molecule, under setting [2], the AC50 is 29.1 µM [falling, single point]. The AC50 under setting [1] was 29.1 µM [falling, single point].
Regarding `COc1ccccc1C(CNC(=O)CSc1ccc2ccccc2c1)N(C)C` (stereo not drawn), the cell number change came to 23.7%. Further, the AC50 under setting [1] was 3.66 µM [rising, full curve].
Consider `CCCC(=O)Nc1ccc(OCC(=O)OC)cc1`, for which the cell number change was -204%. Under setting [2], the AC50 is 18.4 µM [falling, single point].
On to `c1cncc(-c2nc(Oc3ccc(-c4nnco4)cc3)c3c4c(sc3n2)CCCC4)c1`, for which the cell number change amounted to 2.29%. Also, the AC50 under setting [1] is 3.66 µM [rising, single point].
As for `O=C(c1ccc(Sc2ccccc2)c([N+](=O)[O-])c1)N1CCOCC1`, the cell number change stood at 22.2%. For the same molecule, under setting [1], the AC50 is 1.84 µM [rising, partial curve, poor fit].
In the case of `COc1cccc(COCCN2CCN(S(=O)(=O)c3ccc(C)cc3)CCC2=O)c1`, the AC50 under setting [1] is 18.4 µM [rising, single point].
In the case of `COc1ccc(NC(=O)CN2CCCCCC2)cc1OC`, the cell number change came to 12.1%. Besides, the AC50 under setting [1] is 20.6 µM [rising, single point].
As for `CCOC(=O)c1c(NC(=O)CSc2nnnn2C)sc(C(=O)N(C)C)c1C`, the cell number change came out at 51.4%. In addition, the AC50 under setting [2] is 29.1 µM [rising, single point]. The AC50 under setting [1] is 29.1 µM [rising, single point].
Regarding `COc1ccc(C(=O)NCCS(=O)(=O)N2CCN(C(=O)c3ccco3)CC2)cc1`, the cell number change amounted to 0.962%. Moreover, the concentration at half-maximal activity (AC50) under setting [1] is 2.59 µM [rising, full curve, poor fit].
`COc1ccc2c3n([n+]([O-])c2c1)CCN=C3c1ccc(Cl)cc1`: the cell number change worked out at 17.6%. The AC50 under setting [2] was 0.231 µM [falling, single point]. The half-maximal activity concentration (AC50) under setting [1] is 0.517 µM [falling, partial curve].
On to `COc1cc(C2CC(=O)c3cnc(NC(=O)c4ccco4)nc3C2)cc(OC)c1OC` (stereo not drawn), for which the cell number change was found to be 12.8%.
In the case of `Cc1cc[n+](CC(=O)c2ccc(NC(=O)c3ccccc3)cc2)cc1`, the AC50 under setting [1] was 0.731 µM [falling, single point].
For the molecule `CCc1nnc(NC(=O)c2ccc(S(=O)(=O)N(CCOC)CCOC)cc2)s1`, the cell number change is -14.4%. Besides, the AC50 under setting [2] is 0.92 µM [rising, full curve, poor fit]. In addition, under setting [1], the concentration at half-maximal activity (AC50) is 20.6 µM [rising, partial curve, poor fit].
With `O=C(NCc1ccccc1F)c1ccc(S(=O)(=O)N2CCCCCC2)cc1`, the AC50 under setting [1] was 1.16 µM [falling, partial curve, poor fit].
In the case of `O=C(CC1(O)C(=O)Nc2cc(Cl)cc(Cl)c21)c1ccncc1` (stereo not drawn), the cell number change was -19.1%. In addition, under setting [1], the AC50 is 29.1 µM [falling, single point].
For `Cc1cc(C)n(-c2nc3ccccc3c(=O)n2OCC(=O)OCc2ccccc2)n1`, the cell number change was 0.323%. Also, the AC50 under setting [1] was 4.11 µM [rising, single point].
For `CCOC(=O)N1CCN(c2cc(=O)n(-c3ccccc3Cl)c(=O)[nH]2)CC1`, the cell number change is -31.5%. In addition, the half-maximal activity concentration (AC50) under setting [2] is 0.206 µM [falling, full curve]. Also, the AC50 under setting [1] was 1.46 µM [falling, full curve].
`COc1ccc(S(=O)(=O)N2CCC(C(=O)NCc3cccnc3)CC2)cc1OC`: the cell number change amounted to 3.48%. Besides, under setting [1], the AC50 was 0.58 µM [rising, single point].
On to `CC1CN(/C(=N\S(=O)(=O)c2ccccc2)c2ccccc2)CC(C)O1` (stereo not drawn), for which the cell number change is -2.69%. Under setting [1], the AC50 is 1.84 µM [rising, partial curve].
As to `COc1ccc(C(=O)NC(C)(C)C)cc1S(=O)(=O)N1CCCC1`, the cell number change was -108%. In addition, the AC50 under setting [2] was 20.6 µM [falling, partial curve].
With `Cc1ccc(N=C2NC(=O)S/C2=C\c2ccco2)cc1`, the cell number change was -21.5%. In addition, under setting [1], the AC50 was 29.1 µM [falling, single point].
In the case of `CCc1cccc2c(=O)c(C(=O)N3CCCCCC3)c[nH]c12`, the cell number change is -133%. Further, under setting [2], the AC50 was 25.9 µM [falling, partial curve]. The half-maximal activity concentration (AC50) under setting [1] was 0.82 µM [falling, full curve].
Take `CC(C)C(C(=O)Nc1nccs1)c1ccccc1` (stereo not drawn): the cell number change is -30.3%. In addition, the concentration at half-maximal activity (AC50) under setting [2] is 29.1 µM [falling, single point].
On to `Nc1ccccc1C(=O)NNc1ncc(C(F)(F)F)cc1Cl`, for which the cell number change amounted to 3.21%.
As to `O=C(Nc1ccc(F)cc1F)C1CCCN1S(=O)(=O)c1cccc2nsnc12` (stereo not drawn), the cell number change worked out at 67%. The AC50 under setting [2] is 25.9 µM [rising, partial curve, poor fit]. The AC50 under setting [1] is 0.731 µM [rising, full curve].
`COc1ccc(OC)c(C(c2nnnn2Cc2ccccc2)N2CCC(C(N)=O)CC2)c1` (stereo not drawn): the cell number change is -12.1%. Also, the concentration at half-maximal activity (AC50) under setting [1] was 1.84 µM [rising, partial curve, poor fit].
For `CCOC1(OCC)C(c2ccc(Cl)cc2)C(C#N)(C#N)C1(OCC)OCC` (stereo not drawn), the cell number change is -45.9%. Under setting [2], the half-maximal activity concentration (AC50) was 0.731 µM [falling, full curve].
As to `COc1ccc(N2CCN(C(=O)CNC(=O)c3ccccc3Cl)CC2)cc1`, the cell number change was -15.3%. Also, the AC50 under setting [1] is 29.1 µM [falling, single point].
`COCc1nnc(NC(=O)c2ccco2)s1`: the cell number change worked out at 0.195%. Also, the AC50 under setting [1] is 10.3 µM [falling, partial curve].
In the case of `COc1cccc(NC(=O)Nc2nc(SC)ns2)c1`, the cell number change is -37.6%. In addition, the concentration at half-maximal activity (AC50) under setting [2] is 11.6 µM [falling, partial curve].
On to `COC(=O)c1ccc(=O)n(-c2ccc(OC)cc2)c1`, for which the cell number change was found to be 0.696%. The AC50 under setting [1] is 2.31 µM [falling, full curve, poor fit].
Take `C=CCOc1c(Br)cc(/C=N/NC(=O)Cc2ccc(C(F)(F)F)cc2[N+](=O)[O-])cc1OC`: the cell number change is -46%. Further, under setting [2], the AC50 was 13 µM [falling, partial curve]. In addition, the concentration at half-maximal activity (AC50) under setting [1] is 18.4 µM [falling, single point].
With `CCOC(=O)c1nn(-c2ccc(Cl)cc2)cc1O`, the cell number change was -6.72%. Also, the AC50 under setting [2] was 0.731 µM [falling, full curve].
Take `O=C(c1c[nH]c2ccccc12)N1CCN(Cc2ccccc2)CC1`: the cell number change came out at 21.8%.
`O=C(Cn1c(C(=O)N2CCN(C3CCCCC3)CC2)cc2sccc21)c1ccccc1`: the cell number change is 13.7%. Also, the concentration at half-maximal activity (AC50) under setting [2] was 0.92 µM [rising, full curve, poor fit].
As to `O=S1(=O)CCOC[C@H](CC2CCCCC2)N1Cc1cccc(C(F)(F)F)c1`, the cell number change stood at 15%. The AC50 under setting [1] is 3.26 µM [rising, partial curve, poor fit].
Take `O=C(CSc1nnc(-c2ccccn2)o1)Nc1ccccc1Cl`: the cell number change is 10.5%.
In the case of `C=CCNC(=O)c1cc(-c2ccccc2O)on1`, the cell number change is -48.7%. Further, the concentration at half-maximal activity (AC50) under setting [2] was 0.366 µM [falling, partial curve, poor fit]. In addition, under setting [1], the AC50 was 16.4 µM [falling, partial curve, poor fit].
As for `Cc1ccc(Cn2nnc3c(=O)n(CC(=O)NCC4CCCO4)cnc32)cc1` (stereo not drawn), under setting [1], the AC50 was 0.082 µM [rising, full curve].
For `CCOC(=O)c1[nH]c(C)c(C(=O)C(C)C)c1C`, the cell number change turned out to be 15.6%. In addition, the AC50 under setting [2] is 6.51 µM [rising, single point]. Besides, under setting [1], the AC50 is 13 µM [rising, partial curve].
Consider `CCc1[nH]nc2c1C(C1C=CCCC1)C(C#N)=C(N)O2` (stereo not drawn), for which the cell number change came out at 70.4%. Also, the AC50 under setting [2] was 29.1 µM [rising, single point].
For `Cc1ccc2nc(SCC(=O)Nc3oc(C)c4c(C)n[nH]c(=O)c34)[nH]c2c1`, the cell number change is 10%. Under setting [2], the AC50 was 3.66 µM [rising, single point]. Besides, under setting [1], the AC50 is 3.26 µM [rising, full curve].
With `Cc1cccnc1NC(=O)Nc1ccccc1`, the AC50 under setting [1] is 29.1 µM [rising, partial curve, poor fit].
Consider `Cc1nc2ccc(NC(=O)c3ccc(Br)o3)cc2s1`, for which the cell number change is -21.7%.
For the molecule `Cc1ccc(CC(=O)NCc2cccnc2)cc1`, the cell number change was 14.9%.
As to `Oc1cccc(NC(=S)N=Nc2c(O)[nH]c3ccccc23)c1`, the cell number change is -46.7%. For the same molecule, the AC50 under setting [2] was 1.84 µM [falling, partial curve, poor fit]. Further, the AC50 under setting [1] is 29.1 µM [falling, single point].
Take `CC(=O)N1C(=O)C2(C(C#N)=C(N)Oc3n[nH]c(-c4ccccn4)c32)c2ccccc21` (stereo not drawn): the cell number change was -10.5%. For the same molecule, the AC50 under setting [1] was 0.92 µM [rising, partial curve].
As to `COc1cc(OC)c(OC)cc1CN1CCN(S(=O)(=O)c2ccc(F)cc2)CC1`, the cell number change turned out to be 58.6%. Besides, the AC50 under setting [2] is 9.2 µM [rising, single point].
For the molecule `C=CCNC(=O)CC(=O)N/N=C/c1ccc(C(=O)OC)cc1`, the cell number change is 61.2%. In addition, the AC50 under setting [2] is 8.2 µM [rising, partial curve]. The AC50 under setting [1] was 9.2 µM [rising, partial curve].
In the case of `CCOC(=O)c1sc(NC(=O)COC(=O)C(CCSC)NC(C)=O)nc1C` (stereo not drawn), the cell number change was -12.1%. Under setting [2], the AC50 was 6.51 µM [falling, single point].
